For assay [1], the target named is T1, extended pseudosubstrate peptide Biotin-Ahx-…-CONH2 with Y/E at Y14 (human).
T1 sequence (peptide, N-terminal Biotin-Ahx; C-terminal amide (CONH2)): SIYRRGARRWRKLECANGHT
In words: pull-down; biotin-labeled extended PS peptides as bait; Myc-tagged aPKCι kinase domain fished from cell lysates; detected by blot; only the target purified.

The target in assay [2] is T2, extended pseudosubstrate peptide Biotin-Ahx-…-CONH2 with Y/F at Y14 (human).
T2 sequence (peptide, N-terminal Biotin-Ahx; C-terminal amide (CONH2)): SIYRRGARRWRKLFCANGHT
The description is as above.

These are yes or no findings as the source states them, for the method shown. In cells and extracts the contact can be indirect. Some entries that bind do so weakly or less than the wild type. Sequences can lack the tags named with a protein.

B1: Myc-tagged aPKCι kinase domain (domain or fragment, UniProt P41743 254-522)
chain: FDLLRVIGRGSYAKVLLVRLKKTDRIYAMKVVKKELVNDDEDIDWVQTEKHVFEQASNHPFLVGLHSCFQTESRLFFVIEYVNGGDLMFHMQRQRKLPEEHARFYSAEISLALNYLHERGIIYRDLKLDNVLLDSEGHIKLTDYGMCKEGLRPGDTTSTFCGTPNYIAPEILRGEDYGFSVDWWALGVLMFEMMAGRSPFDIVGSSDNPDQNTEDYLFQVILEKQIRIPRSLSVKAASVLKSFLNKDPKERLGCHPQTGFADIQGHPFF
For the molecule B1, the binding entry was “no binding” in assay [1] and “binds” in assay [2].

The values are drawn from paper PMC10333572.
